Laboratory results published in publication PMC6584520.
These are yes or no findings as the source states them, for the method shown. In cells and extracts the contact can be indirect. Some entries that bind do so weakly or less than the wild type.

Chains of the proteins cited; added tags and fusions are not shown.
UniProt Q03135: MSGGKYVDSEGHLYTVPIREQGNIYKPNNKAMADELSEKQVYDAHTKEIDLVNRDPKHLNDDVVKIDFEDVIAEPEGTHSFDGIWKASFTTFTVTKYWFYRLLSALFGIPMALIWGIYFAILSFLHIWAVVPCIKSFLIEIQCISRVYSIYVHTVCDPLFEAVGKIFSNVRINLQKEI
UniProt Q8WUM4: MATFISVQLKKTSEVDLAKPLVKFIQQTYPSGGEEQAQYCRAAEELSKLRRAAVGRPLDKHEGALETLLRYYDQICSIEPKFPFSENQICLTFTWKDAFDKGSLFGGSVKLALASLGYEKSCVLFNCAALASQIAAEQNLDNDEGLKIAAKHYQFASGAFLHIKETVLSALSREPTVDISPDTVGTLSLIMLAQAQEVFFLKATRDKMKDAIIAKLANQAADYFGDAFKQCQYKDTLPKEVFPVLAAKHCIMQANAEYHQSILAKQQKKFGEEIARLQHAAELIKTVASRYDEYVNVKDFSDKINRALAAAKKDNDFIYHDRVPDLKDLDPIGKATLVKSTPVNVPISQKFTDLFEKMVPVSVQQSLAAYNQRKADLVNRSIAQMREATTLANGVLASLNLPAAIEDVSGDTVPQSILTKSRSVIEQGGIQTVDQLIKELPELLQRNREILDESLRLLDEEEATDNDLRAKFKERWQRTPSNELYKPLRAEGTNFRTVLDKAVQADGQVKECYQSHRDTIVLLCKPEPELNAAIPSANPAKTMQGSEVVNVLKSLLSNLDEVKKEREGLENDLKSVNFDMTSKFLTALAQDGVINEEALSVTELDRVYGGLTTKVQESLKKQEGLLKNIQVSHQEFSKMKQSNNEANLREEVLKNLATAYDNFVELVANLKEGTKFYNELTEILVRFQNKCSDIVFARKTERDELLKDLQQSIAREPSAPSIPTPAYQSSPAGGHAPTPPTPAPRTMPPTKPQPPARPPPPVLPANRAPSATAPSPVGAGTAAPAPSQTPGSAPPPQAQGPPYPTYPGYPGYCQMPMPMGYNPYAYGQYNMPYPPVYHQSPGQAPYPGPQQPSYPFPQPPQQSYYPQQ

T1: Occludin (human (endogenous in human brain vascular pericytes)) (UniProt Q16625)
T1 sequence: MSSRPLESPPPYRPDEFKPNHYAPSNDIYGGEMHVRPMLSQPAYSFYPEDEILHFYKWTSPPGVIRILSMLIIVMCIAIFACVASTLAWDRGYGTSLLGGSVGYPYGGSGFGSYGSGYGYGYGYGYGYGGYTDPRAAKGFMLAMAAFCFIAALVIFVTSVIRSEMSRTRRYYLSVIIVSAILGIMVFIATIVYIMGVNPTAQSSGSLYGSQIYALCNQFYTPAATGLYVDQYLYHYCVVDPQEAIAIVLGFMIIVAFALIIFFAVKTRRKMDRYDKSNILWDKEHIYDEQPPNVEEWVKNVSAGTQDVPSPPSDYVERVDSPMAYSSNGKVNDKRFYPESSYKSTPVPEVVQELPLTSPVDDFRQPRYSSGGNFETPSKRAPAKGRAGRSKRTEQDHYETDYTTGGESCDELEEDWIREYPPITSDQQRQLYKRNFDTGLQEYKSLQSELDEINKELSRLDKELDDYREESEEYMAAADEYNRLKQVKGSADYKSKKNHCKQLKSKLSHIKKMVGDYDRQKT


Columns and labels:
[1] = target: T1, Occludin (human (endogenous in human brain vascular pericytes)); experiment: co-IP; co-immunoprecipitation in human brain vascular pericytes; bait not told
[2] = target: caveolin-1 (human (endogenous in human brain vascular pericytes)) (UniProt Q03135); experiment: as above

| Molecule | binding [1] | binding [2] |
| --- | --- | --- |
| Alix (from UniProt Q8WUM4 1-868) | binds | binds |
| Occludin (protein, UniProt Q16625 1-522) MSSRPLESPPPYRPDEFKPNHYAPSNDIYGGEMHVRPMLSQPAYSFYPEDEILHFYKWTSPPGVIRILSMLIIVMCIAIFACVASTLAWDRGYGTSLLGGSVGYPYGGSGFGSYGSGYGYGYGYGYGYGGYTDPRAAKGFMLAMAAFCFIAALVIFVTSVIRSEMSRTRRYYLSVIIVSAILGIMVFIATIVYIMGVNPTAQSSGSLYGSQIYALCNQFYTPAATGLYVDQYLYHYCVVDPQEAIAIVLGFMIIVAFALIIFFAVKTRRKMDRYDKSNILWDKEHIYDEQPPNVEEWVKNVSAGTQDVPSPPSDYVERVDSPMAYSSNGKVNDKRFYPESSYKSTPVPEVVQELPLTSPVDDFRQPRYSSGGNFETPSKRAPAKGRAGRSKRTEQDHYETDYTTGGESCDELEEDWIREYPPITSDQQRQLYKRNFDTGLQEYKSLQSELDEINKELSRLDKELDDYREESEEYMAAADEYNRLKQVKGSADYKSKKNHCKQLKSKLSHIKKMVGDYDRQKT | – | binds |
